Assay results: PubChem BioAssay AID540276 (National Center for Advancing Translational Sciences (NCATS), 2011)
Hit rate of the full screen: of about 300,000 compounds, about 5,400 (1.8%) were called active. Inconclusive results, whose numbers are uncertain, are shown with a selection of clear calls. Calls follow the shape of the full dose curve; tested in HEK293 cells. Potencies beside an inconclusive call are fits to weak or partial responses and may not hold up.

Assay: qHTS for inhibitors of binding or entry into cells for Marburg Virus
Settings: Marburg virus pseudotyped entry inhibition, cell reporter; series mostly up to 37.8 µM
Potency is read from the fitted curve at half-maximal effect.

Compound | Potency
Cc1cc(OC(=O)N2CCCCC2)cc(C)c1Cl | inactive
COc1ccc(-c2nc(C#N)c(NCCCn3ccnc3)o2)cc1OC | inconclusive: 29.1 µM [activator, single point]
CC(=O)Nc1ccc2c(c1)CCc1ccccc1-2 | inconclusive: 1.26 µM [activator, full curve, poor fit]
Cc1[nH]ccc(=O)c1Cc1c(Cl)cccc1Cl | inconclusive: 3.98 µM [inhibitor, single point]
CCCCN1C(=O)/C(=C/C=C/c2ccco2)C(=O)NC1=S | inactive
Nc1c(C(=O)NC2CCCCC2)nsc1C(=O)OCC(=O)NC1CCCCC1 | inconclusive: 32.6 µM [inhibitor, single point]
CCc1nc2sc3c(c2c(=O)n1N)CC(C)(C)OC3 | inactive
CCn1cc(C(C)NC(=O)Nc2ccc3c(c2)OCO3)c(C)n1 (centres undefined) | inactive
O=C(O)c1nn(Cc2ccc(Cl)cc2Cl)c2ccccc12 | inconclusive: 20.6 µM [activator, single point]
O=C(c1ccc2c(Cl)c3c(nc2c1)CCCC3)N1CCC(N2CCCCC2)CC1 | active: 4.61 µM
COc1ccc(CC(=O)OCC(=O)Nc2ccc(Cl)cc2C)cc1 | inactive
Cc1ccc(C(=O)NNC(=O)c2cc3ccccc3cc2O)cc1 | inactive
CNS(=O)(=O)c1ccc2nc(NC(=O)c3ccc(N4C(=O)CCC4=O)cc3)sc2c1 | inactive
COc1ccc(-c2nnc3sc(COc4ccc(C)cc4)nn23)cc1 | inactive
C=CCOc1ccc(Cl)cc1C(=O)O | inconclusive: 17.8 µM [activator, single point]
COC(=O)C/C=C\[C@@H](C)[C@@H](/C=N\OC[C@@H](C)[C@H](OCc1ccccc1)C(C)C)NS(=O)(=O)c1ccc(C)cc1 | inactive
Cc1ccc(C)c(NC(=O)COC(=O)CC2c3ccccc3CCN2S(=O)(=O)c2ccc(F)cc2)c1 (centres undefined) | inconclusive: 10.3 µM [inhibitor, partial curve, poor fit]
COc1ccc(/C=C/c2onc(C)c2S(=O)(=O)N2CCC(C(=O)N3CCC(C)CC3)CC2)cc1 | inconclusive: 25.1 µM [inhibitor, single point]
O=C1Nc2c(c(=O)[nH]c(=O)n2Cc2ccccc2)C1(NS(=O)(=O)c1ccccc1)C(F)(F)F (centres undefined) | inconclusive: 6.31 µM [inhibitor, partial curve, poor fit]
Cc1ccc(/C=N\NC(=O)c2ccc(Cn3cc(Br)c([N+](=O)[O-])n3)o2)o1 | inconclusive: 8.91 µM [inhibitor, partial curve, poor fit]
Cc1cc(N)n2nc(C)c(-c3ccc(Cl)cc3)c2n1 | inconclusive: 12.6 µM [inhibitor, partial curve, poor fit]
S=c1[nH]nc(COc2cccc3ccccc23)n1Cc1ccccc1 | inconclusive: 35.5 µM [inhibitor, partial curve, poor fit]
Cc1cc(Br)ccc1NC(=O)c1ccc(-n2cncn2)c([N+](=O)[O-])c1 | inactive

Compound | Potency
O=C(Nc1ccc(N2CCN(C(=O)c3cccs3)CC2)c(Cl)c1)c1ccco1 | inconclusive: 29.1 µM [inhibitor, single point]
O=C(c1cccc([N+](=O)[O-])c1)N1CCCC(C(=O)N2CCCCCC2)C1 (centres undefined) | inconclusive: 3.16 µM [activator, single point]
CCCNC(=O)c1ccccc1NC(=O)COc1cccc2c1OC(C)(C)C2 | inconclusive: 17.8 µM [inhibitor, single point]
O=C1COc2ccc(C(=O)CSc3nnc(-c4cccs4)n3Cc3ccccc3)cc2N1 | inconclusive: 35.5 µM [inhibitor, single point]
O=C(CCNS(=O)(=O)c1ccc(Br)cc1)N1CCCCCCC1 | inconclusive: 35.5 µM [inhibitor, single point]
O=C(C1CCN(C2CCN(C/C=C/c3ccccc3)CC2)CC1)N1CCOCC1 | inconclusive: 17.8 µM [inhibitor, single point]
Cc1ccc(S(=O)(=O)c2nc(-c3ccccc3)oc2N2CCCCCC2)cc1 | inconclusive: 5.01 µM [inhibitor, full curve]
COCCN(Cc1nc(C2(c3ccc(C)cc3)CCCC2)no1)C(C)C | inconclusive: 11.2 µM [inhibitor, single point]
Cc1ccc(NP(=O)(Oc2ccccc2F)Oc2ccccc2F)cc1C | inconclusive: 16.4 µM [inhibitor, single point]
CC(C)(C)C1CCC(C(=O)Nc2cccnc2)CC1 (centres undefined) | inconclusive: 35.5 µM [inhibitor, single point]
Cc1cccc(OCC(=O)N(Cc2cccc(Cl)c2)Cc2ccco2)c1C | inconclusive: 35.5 µM [inhibitor, single point]
CC(C)S(=O)(=O)c1oc(-c2ccc(F)cc2)nc1S(=O)(=O)c1ccc(F)cc1 | inconclusive: 12.6 µM [inhibitor, partial curve, poor fit]
COc1ccc(-n2c(C)cc(C(=O)CN3C(=O)c4ccccc4C3=O)c2C)cc1 | inconclusive: 14.1 µM [activator, single point]
Cc1ccc(NC(=S)N2CCCC2)cc1C | inconclusive: 35.5 µM [activator, single point]
NC(=O)c1c(N)sc2c1CCC2 | inconclusive: 3.55 µM [activator, single point]
O=C(NCc1ccncc1)Nc1ccc2c(c1)OCO2 | inactive
Cc1ccc2c(c1)cc1c(=O)n(CC(=O)NCc3ccco3)nc(C)n12 | inconclusive: 7.08 µM [inhibitor, full curve, poor fit]
COc1ccc(N=Cc2ccc[nH]2)cc1 | inactive
CSc1ccccc1-c1nnc(-c2ccc(C)cc2)o1 | inconclusive: 6.31 µM [activator, single point]
COc1ccc(CC2(CO)CCN(C/C=C/c3ccccc3OC)CC2)cc1 | inconclusive: 25.1 µM [inhibitor, partial curve, poor fit]
CCCn1nnc(NC(=O)COc2cc(C)ccc2C(C)C)n1 | inactive
COc1ccccc1N1CCN(C(=O)c2cccc(S(=O)(=O)N3c4ccccc4CC3C)c2)CC1 (centres undefined) | inconclusive: 17.8 µM [inhibitor, partial curve, poor fit]
CC1CCCN(C(=O)c2cc(-c3cccs3)nc3ccccc23)C1 (centres undefined) | inconclusive: 8.91 µM [inhibitor, partial curve, poor fit]

Compound | Potency
COc1cc(OC)cc(-c2nnc(SCC(=O)N3CCC(C)CC3)o2)c1 | inactive
COc1ccc(-n2nnnc2SCC(=O)NC(=O)Nc2ccc3c(c2)OCCO3)cc1 | inconclusive: 15.8 µM [activator, single point]
COc1cc(CCC(=O)Nc2ccc(S(=O)(=O)NC3=NCCCCC3)cc2)cc(OC)c1OC | inconclusive: 7.94 µM [activator, partial curve, poor fit]
CC(C)(C)c1ccc(OCC(=O)N(Cc2ccco2)Cc2ccccc2F)cc1 | inconclusive: 2.24 µM [activator, partial curve, poor fit]
CC(NC(=O)Nc1ccc(Cl)cc1)C1CCCO1 (centres undefined) | inactive
COc1ccc(/C=C/c2nc3ccccc3n2Cc2ccc(OC)c(OC)c2)cc1 | inconclusive: 9.2 µM [inhibitor, partial curve, poor fit]
Cc1cc(C)cc(N(C(=O)c2snc(C(N)=O)c2N)C(C(=O)NCC2CCCO2)c2cccs2)c1 (centres undefined) | inconclusive: 6.31 µM [inhibitor, full curve]
O=C1c2[nH]c(=O)[nH]c(=O)c2CN1Cc1ccccc1 | inconclusive: 0.708 µM [inhibitor, partial curve, poor fit]
CC(O)C(=O)N/N=C/c1ccccc1C(=O)O (centres undefined) | inactive
Cc1ccc(N(C(=O)Cn2nnc(-c3ccc(F)cc3)n2)C(CC(C)C)C(=O)NCC2CCCO2)cc1 (centres undefined) | inconclusive: 29.1 µM [inhibitor, single point]
CSc1ccccc1OCc1cc(C(=O)NCCn2nc(C)cc2C)no1 | inactive
COc1ccc(S(=O)(=O)N(C)C2CCS(=O)(=O)C2)cc1OC (centres undefined) | inactive
Cc1cc(NC(=O)CSc2cn(CCNC(=O)c3ccc(F)cc3)c3ccccc23)no1 | inconclusive: 22.4 µM [inhibitor, partial curve, poor fit]
CCCCOC(=O)Nc1nnc(C(C)C)s1 | inconclusive: 35.5 µM [inhibitor, single point]
CCOc1nc(NC(=O)NS(=O)(=O)Oc2ccc(Cl)cc2)nc(-c2ccccc2)n1 | inactive
COc1ccc(NC(=O)N2CCN(S(C)(=O)=O)CC2)c(OC)c1 | inconclusive: 6.31 µM [activator, partial curve, poor fit]
CCCC(=O)Oc1c(Sc2ccc(Cl)cc2)c(C)nn1-c1ccccc1 | inactive
CN1/C(=C\C=C2/SC(=S)N(CC(=O)O)C2=O)C(C)(C)c2ccccc21 | inactive
CCOc1ccc2oc(C(=O)Nc3ccc4c(c3)OCO4)c(C)c2c1 | inactive
O=C1Nc2ccc(F)cc2C12Nc1ccccc1-c1nnc(SCc3ccccc3Cl)nc1O2 (centres undefined) | inconclusive: 0.631 µM [inhibitor, full curve, poor fit]
Cn1ncc(Cl)c(Oc2ccc(Cl)cc2)c1=O | inconclusive: 23.1 µM [activator, partial curve, poor fit]
COC(=O)C(Cc1ccc(O)cc1)NC(=O)C(C)NC(=O)c1ccc(C(C)(C)C)cc1 (centres undefined) | inactive
O=[N+]([O-])c1ccc(O[C@@H]2O[C@H](CO)[C@@H](O)[C@H](O)[C@H]2F)c([N+](=O)[O-])c1 | inconclusive: 17.8 µM [inhibitor, single point]

Pulled one by one from the entries so far, 6 records:
Compound | Potency
COC(=O)C(Cc1ccc(O)cc1)NC(=O)C(C)NC(=O)c1ccc(C(C)(C)C)cc1 (centres undefined) | inactive
O=C1c2[nH]c(=O)[nH]c(=O)c2CN1Cc1ccccc1 | inconclusive: 0.708 µM [inhibitor, partial curve, poor fit]
Cc1cc(C)cc(N(C(=O)c2snc(C(N)=O)c2N)C(C(=O)NCC2CCCO2)c2cccs2)c1 (centres undefined) | inconclusive: 6.31 µM [inhibitor, full curve]
COc1ccc(/C=C/c2nc3ccccc3n2Cc2ccc(OC)c(OC)c2)cc1 | inconclusive: 9.2 µM [inhibitor, partial curve, poor fit]
COc1ccc(-n2nnnc2SCC(=O)NC(=O)Nc2ccc3c(c2)OCCO3)cc1 | inconclusive: 15.8 µM [activator, single point]
O=[N+]([O-])c1ccc(O[C@@H]2O[C@H](CO)[C@@H](O)[C@H](O)[C@H]2F)c([N+](=O)[O-])c1 | inconclusive: 17.8 µM [inhibitor, single point]
